Results on two molecules are retold here after patent publication US11278503B2, “Pharmaceutical compositions comprising semifluorinated alkanes for the treatment of contact lense-related conditions” (NOVALIQ GMBH, priority 2017, dated 2022).

Values joined by “and” are separate entries in the source; they are usually repeats but may differ in a detail not shown here. Identical values can stand only once. “Also recorded” adds a separate entry of the source.

A short description of series [1]: Material compatibility testing: lens parameters (diameter, BCOR, BVP) and physical appearance after immersion in SFA. To be noted: for physical appearance / handling of lenses placed or stored in the SFA: Soflens 38 in undiluted SFA.
Series [2] can be described thus: Material compatibility testing: mechanical properties (tensile testing) of lenses exposed to SFA. The following applies: Soflens 38 lenses exposed to SFA 7 days; for E-Modulus, Mean / Elongation to break, Mean: mean of 9 samples.

Regarding `CCCCCC(F)(F)C(F)(F)C(F)(F)C(F)(F)F` [F4H5, 1-perfluorobutyl-pentane], the “physical appearance / handling of lenses placed or stored in the SFA” value in series [1] was “curl up upon themselves; also recorded: became folded”. Moreover, in series [2], the “E-Modulus, Mean” value was 0.89 MPa and the “Elongation to break, Mean” value is given as 137.74%.

In the case of `CCCCCCCCC(F)(F)C(F)(F)C(F)(F)C(F)(F)C(F)(F)C(F)(F)F` [F6H8, 1-perfluorohexyl-octane], the “optics / BVP measurement directly after exposure” value in series [1] (Soflens 38 after 7 days in SFA and ultrasonic bath, before storage in ISO saline) is given as “optics were too blurry”. Besides, the “lens surface seen through the lens under fluorescent light” value in series [1] (Soflens 38 after 7 days in SFA, before storage in ISO saline) is reported as “rippled”. Further, the “physical appearance / handling of lenses placed or stored in the SFA” value in series [1] is “curl up upon themselves; also recorded: became folded”. Besides, in series [1] (after storage in standard saline (48 hours)), the “reversibility of the change in optical quality” value is given as “reversible”. In series [2], the “E-Modulus, Mean” value came to 0.92 MPa and the “Elongation to break, Mean” value was 146.35%. For the same molecule, the E-Modulus in series [2] (single samples) was 0.65 MPa and 0.63 MPa and 0.70 MPa and 1.07 MPa and 0.98 MPa and 0.89 MPa and 1.11 MPa and 1.14 MPa.
